Experimental data as given in patent US11857551B1, “Methods for the prevention and treatment of hearing loss” (Ting Therapeutics LLC, priority 2020, dated 2024).
At least one structure is not confirmed: it was looked up by name or label, or the drawing left a doubt. Some entries repeat one wording, which the source may state once for all of them.

test system: zebrafish HCs (lateral-line neuromasts); assay: Cisplatin ototoxicity in zebrafish, neuromast hair cell count; details: 0.002, 0.018, 0.165, 1.48, 13.3 μM for 1 hour, then co-incubation with 400 μM cisplatin for 4 hours

Compound	protection against cisplatin ototoxicity (CIHL) in zebrafish
COC[C@H]1OC(=O)c2coc3c2[C@@]1(C)C1=C(C3=O)[C@@H]2CCC(=O)[C@@]2(C)C[C@H]1OC(C)=O [wortmannin]	showed protection against CIHL
CN1C(=O)[C@@]23C[C@]4([C@]56C[C@@]78SS[C@@](CO)(C(=O)N7[C@H]5Nc5ccccc56)N(C)C8=O)c5ccccc5N[C@@H]4N2C(=O)[C@]1(CO)SS3 [chaetocin]	showed protection against CIHL
CC(=O)c1c(C)c2cnc(Nc3ccc(N4CCNCC4)cn3)nc2n(C2CCCC2)c1=O [palbociclib]	showed protection against CIHL
